In the supplement of paper PMC10849652:
The other results are listed elsewhere or left out.

Protein sequences, listed by entry. Tags and fused reporters are not part of them. Lines headed by an entry give the natural chain unless they say otherwise; changes in a name come on top.
UniProt Q16576, whole entry, looked up: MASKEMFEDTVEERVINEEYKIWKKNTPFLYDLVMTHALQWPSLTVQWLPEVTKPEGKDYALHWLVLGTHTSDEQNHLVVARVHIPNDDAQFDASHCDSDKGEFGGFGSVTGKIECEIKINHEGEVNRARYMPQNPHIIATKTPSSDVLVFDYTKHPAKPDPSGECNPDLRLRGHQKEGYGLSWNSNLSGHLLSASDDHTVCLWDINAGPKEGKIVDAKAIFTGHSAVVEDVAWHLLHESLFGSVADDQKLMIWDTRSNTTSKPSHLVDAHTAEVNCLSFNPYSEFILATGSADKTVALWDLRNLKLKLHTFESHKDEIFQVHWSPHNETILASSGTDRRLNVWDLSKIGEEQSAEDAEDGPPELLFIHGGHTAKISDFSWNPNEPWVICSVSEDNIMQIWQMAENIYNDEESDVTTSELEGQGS
UniProt Q15771: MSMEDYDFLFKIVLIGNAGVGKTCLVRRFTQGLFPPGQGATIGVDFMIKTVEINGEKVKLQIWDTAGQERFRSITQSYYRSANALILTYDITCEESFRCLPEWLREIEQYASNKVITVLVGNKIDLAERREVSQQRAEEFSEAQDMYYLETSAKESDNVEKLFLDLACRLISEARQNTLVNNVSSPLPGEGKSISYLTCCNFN
UniProt Q92930: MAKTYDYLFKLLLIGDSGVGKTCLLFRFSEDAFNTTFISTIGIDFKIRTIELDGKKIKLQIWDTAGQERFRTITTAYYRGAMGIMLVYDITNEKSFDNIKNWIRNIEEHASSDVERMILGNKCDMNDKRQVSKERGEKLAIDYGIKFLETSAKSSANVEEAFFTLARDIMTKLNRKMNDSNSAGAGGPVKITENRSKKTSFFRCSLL
UniProt O60671: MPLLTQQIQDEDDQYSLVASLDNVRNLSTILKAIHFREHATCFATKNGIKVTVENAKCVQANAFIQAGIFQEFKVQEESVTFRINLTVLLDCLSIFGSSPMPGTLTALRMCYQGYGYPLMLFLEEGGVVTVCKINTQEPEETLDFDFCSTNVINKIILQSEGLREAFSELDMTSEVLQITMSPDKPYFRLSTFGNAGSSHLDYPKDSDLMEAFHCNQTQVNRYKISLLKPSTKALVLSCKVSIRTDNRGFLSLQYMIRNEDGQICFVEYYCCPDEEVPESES
UniProt P11234: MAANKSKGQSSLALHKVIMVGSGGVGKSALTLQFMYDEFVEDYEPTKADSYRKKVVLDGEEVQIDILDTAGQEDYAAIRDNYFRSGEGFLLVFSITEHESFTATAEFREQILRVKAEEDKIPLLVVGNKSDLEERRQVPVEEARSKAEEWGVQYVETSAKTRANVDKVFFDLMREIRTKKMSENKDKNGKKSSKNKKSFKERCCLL
UniProt P54136: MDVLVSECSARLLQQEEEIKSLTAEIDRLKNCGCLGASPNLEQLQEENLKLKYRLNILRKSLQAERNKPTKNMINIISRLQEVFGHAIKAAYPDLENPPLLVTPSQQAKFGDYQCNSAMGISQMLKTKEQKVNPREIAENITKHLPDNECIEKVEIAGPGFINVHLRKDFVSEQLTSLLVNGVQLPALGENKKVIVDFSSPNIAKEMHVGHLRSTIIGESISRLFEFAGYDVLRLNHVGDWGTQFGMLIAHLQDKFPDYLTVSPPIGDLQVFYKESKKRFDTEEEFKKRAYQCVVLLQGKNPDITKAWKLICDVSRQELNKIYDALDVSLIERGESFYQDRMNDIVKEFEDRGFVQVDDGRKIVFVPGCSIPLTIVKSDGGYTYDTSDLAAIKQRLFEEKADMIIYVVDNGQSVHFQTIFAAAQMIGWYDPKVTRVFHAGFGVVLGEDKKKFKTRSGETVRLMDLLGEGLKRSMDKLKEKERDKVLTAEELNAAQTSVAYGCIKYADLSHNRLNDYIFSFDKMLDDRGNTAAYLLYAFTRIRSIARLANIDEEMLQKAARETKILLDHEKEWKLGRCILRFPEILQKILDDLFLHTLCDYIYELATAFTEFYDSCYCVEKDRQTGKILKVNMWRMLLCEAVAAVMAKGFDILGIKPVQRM
UniProt Q15042: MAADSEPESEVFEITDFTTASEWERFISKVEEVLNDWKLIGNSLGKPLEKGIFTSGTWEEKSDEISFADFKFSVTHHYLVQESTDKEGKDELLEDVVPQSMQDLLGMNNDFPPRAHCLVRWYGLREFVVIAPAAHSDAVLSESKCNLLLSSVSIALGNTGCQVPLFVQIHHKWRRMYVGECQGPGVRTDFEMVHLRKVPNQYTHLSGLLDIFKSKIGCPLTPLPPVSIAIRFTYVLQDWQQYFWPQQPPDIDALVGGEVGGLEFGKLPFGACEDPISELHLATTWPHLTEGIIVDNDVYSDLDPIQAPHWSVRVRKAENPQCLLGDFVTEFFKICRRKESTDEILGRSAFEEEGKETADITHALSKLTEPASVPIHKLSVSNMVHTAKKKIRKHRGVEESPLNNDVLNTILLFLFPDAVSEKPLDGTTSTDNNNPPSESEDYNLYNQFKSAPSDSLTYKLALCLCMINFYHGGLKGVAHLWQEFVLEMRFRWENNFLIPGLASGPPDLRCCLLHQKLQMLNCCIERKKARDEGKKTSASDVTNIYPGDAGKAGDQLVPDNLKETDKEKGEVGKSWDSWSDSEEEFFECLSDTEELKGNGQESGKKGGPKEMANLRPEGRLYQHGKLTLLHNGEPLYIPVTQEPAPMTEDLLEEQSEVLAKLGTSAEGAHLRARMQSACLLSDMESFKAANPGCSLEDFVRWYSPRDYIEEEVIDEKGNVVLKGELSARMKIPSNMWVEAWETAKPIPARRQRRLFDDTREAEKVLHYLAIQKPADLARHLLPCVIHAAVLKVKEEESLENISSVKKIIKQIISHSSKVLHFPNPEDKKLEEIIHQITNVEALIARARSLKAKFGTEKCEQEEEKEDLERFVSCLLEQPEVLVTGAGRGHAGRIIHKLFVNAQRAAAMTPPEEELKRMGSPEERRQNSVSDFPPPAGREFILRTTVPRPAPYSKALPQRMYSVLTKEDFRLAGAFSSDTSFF
UniProt Q6GYQ0: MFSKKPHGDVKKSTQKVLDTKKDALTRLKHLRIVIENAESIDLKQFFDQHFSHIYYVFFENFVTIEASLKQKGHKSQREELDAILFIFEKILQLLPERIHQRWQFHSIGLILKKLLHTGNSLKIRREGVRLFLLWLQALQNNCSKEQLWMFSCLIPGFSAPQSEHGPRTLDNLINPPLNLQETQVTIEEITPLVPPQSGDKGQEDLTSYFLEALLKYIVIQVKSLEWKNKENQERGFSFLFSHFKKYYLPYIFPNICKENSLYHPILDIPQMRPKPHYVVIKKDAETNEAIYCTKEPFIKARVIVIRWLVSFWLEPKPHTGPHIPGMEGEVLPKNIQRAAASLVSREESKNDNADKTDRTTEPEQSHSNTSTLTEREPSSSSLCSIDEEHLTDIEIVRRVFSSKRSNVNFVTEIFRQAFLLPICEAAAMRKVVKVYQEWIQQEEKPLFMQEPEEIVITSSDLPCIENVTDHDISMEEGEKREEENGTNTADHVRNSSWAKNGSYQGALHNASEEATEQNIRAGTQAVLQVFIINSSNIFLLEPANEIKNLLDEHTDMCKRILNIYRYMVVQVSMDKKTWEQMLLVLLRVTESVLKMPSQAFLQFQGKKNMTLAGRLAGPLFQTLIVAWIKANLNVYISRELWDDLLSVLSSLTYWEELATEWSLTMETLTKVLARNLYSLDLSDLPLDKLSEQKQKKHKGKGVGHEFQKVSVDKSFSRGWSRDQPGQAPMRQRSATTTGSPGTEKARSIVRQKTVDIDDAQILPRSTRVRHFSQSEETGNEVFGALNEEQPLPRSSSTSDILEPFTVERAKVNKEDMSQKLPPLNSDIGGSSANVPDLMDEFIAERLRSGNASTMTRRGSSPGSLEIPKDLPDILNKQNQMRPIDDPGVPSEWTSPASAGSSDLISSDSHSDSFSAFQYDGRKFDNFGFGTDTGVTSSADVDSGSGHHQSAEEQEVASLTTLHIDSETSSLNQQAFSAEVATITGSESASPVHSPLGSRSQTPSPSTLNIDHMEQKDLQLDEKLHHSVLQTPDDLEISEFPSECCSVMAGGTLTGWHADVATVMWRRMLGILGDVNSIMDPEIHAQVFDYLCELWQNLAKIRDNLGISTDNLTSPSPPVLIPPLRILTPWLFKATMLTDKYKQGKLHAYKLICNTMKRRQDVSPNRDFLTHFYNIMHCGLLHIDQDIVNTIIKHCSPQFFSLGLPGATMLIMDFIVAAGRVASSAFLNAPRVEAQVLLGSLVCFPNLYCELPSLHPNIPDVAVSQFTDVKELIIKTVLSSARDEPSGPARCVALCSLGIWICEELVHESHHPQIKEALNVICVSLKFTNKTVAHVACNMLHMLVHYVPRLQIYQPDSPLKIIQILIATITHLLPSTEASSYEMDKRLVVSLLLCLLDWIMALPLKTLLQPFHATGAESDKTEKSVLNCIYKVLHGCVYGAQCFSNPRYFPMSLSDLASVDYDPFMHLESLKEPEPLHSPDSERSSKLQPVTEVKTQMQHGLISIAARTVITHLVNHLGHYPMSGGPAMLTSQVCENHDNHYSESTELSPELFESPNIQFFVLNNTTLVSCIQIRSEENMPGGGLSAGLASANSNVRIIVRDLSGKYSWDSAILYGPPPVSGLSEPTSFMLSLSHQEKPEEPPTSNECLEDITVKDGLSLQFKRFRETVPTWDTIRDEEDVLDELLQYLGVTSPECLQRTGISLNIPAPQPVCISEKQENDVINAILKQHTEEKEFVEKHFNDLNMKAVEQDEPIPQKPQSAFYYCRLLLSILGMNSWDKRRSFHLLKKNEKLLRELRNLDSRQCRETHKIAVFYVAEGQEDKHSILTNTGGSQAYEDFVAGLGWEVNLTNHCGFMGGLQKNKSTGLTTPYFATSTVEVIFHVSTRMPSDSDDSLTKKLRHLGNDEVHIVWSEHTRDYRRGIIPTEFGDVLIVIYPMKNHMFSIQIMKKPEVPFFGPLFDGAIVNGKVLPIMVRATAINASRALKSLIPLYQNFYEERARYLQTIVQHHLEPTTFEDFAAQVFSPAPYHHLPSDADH
UniProt Q3YEC7: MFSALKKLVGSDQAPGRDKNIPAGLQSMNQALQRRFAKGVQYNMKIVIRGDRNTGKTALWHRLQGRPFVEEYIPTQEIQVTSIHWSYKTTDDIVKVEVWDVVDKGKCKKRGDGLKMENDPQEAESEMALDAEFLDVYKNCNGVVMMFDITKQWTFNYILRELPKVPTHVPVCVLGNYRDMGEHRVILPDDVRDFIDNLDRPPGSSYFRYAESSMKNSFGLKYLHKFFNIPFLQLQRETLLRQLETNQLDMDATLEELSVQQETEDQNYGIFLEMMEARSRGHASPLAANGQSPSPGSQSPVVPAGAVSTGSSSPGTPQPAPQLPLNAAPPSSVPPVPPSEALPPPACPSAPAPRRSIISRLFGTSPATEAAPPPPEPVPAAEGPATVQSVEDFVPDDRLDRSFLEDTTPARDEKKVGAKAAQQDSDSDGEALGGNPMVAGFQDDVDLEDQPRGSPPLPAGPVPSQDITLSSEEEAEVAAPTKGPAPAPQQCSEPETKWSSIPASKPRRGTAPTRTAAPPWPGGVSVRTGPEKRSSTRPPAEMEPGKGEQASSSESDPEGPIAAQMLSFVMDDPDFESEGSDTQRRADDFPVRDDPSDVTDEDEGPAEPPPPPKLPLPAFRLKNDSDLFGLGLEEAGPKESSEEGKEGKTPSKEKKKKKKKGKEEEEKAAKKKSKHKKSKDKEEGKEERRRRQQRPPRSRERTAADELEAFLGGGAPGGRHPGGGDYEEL
UniProt Q8WWW0: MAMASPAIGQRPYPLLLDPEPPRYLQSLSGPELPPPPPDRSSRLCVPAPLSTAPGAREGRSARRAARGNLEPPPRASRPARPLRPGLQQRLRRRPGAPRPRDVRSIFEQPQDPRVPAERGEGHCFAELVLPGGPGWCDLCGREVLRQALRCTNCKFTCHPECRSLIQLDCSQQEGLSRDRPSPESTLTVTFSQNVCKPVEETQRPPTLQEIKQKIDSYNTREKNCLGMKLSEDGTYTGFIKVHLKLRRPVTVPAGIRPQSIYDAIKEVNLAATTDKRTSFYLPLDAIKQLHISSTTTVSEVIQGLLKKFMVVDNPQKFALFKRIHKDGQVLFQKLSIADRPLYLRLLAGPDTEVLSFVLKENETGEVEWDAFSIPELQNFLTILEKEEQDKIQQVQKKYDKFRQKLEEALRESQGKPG
UniProt P11233: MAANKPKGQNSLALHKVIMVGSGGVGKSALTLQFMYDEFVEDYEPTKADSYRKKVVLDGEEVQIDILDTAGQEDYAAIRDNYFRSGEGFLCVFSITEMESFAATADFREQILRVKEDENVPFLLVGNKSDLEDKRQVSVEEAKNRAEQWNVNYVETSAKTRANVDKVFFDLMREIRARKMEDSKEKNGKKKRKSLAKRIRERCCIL
UniProt O14966: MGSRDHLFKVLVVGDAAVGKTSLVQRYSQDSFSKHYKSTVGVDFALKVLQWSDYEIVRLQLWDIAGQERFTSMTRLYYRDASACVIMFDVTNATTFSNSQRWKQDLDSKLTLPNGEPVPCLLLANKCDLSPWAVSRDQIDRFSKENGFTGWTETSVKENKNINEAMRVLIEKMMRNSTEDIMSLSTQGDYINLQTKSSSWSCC

Each target was assayed with C#Cc1cccc(Nc2ncnc3cc(OCCOC)c(OCCOC)cc23)c1 [erlotinib] (assay: log2 fold change, soluble protein after heating vs DMSO (PISA); higher = thermal stabilisation; K562 cells, 10 uM, 30 min; active = over 0.2 and 3.5 SD of the protein, either way, in both replicates (recomputed)).
In short: (§1)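 Thermal stability values are relative to control samples and come from duplicates. They are expressed as log2 fold changes. For measurement, K562 cells (2×10^6 cells/mL) received 10 μM compound for 30 min, and aliquots were heated for 3 min over 48°C-58°C, pooled, and extracted at 4°C in PBS with 0.5% NP-40. Soluble protein, the supernatant after 21,000xg for 90 min, was quantified by TMTpro 16plex LC-MS/MS with equalised channel sums.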

| Target | log2 fold change |
| --- | --- |
| RABGEF1 isoform 3 (UniProt Q9UJ41) | inactive: -0.027 |
| RAP2C (UniProt Q9Y3L5) | inactive: 0.021 |
| RBBP7 (UniProt Q16576) | inactive: 0.026 |
| RBM28 (UniProt Q9NW13) | inactive: 0.073 |
| RAB10 (UniProt P61026) | inactive: -0.019 |
| RAB6D (UniProt Q53S08) | inactive: 0.121 |
| RAB3IL1 (UniProt Q8TBN0) | inactive: -0.007 |
| RAB11FIP1 (UniProt Q6WKZ4) | inactive: 0.004 |
| RAB30 (UniProt Q15771) | inactive: 0.057 |
| RAB8B (UniProt Q92930) | inactive: 0.258 |
| RAD1 (UniProt O60671) | inactive: -0.025 |
| RALB isoform 2 (UniProt P11234) | inactive: 0.021 |
| RARS (UniProt P54136) | inactive: 0.023 |
| RAB4A (UniProt P20338) | inactive: 0.006 |
| RBM22 (UniProt Q9NW64) | inactive: -0.013 |
| RBM33 (UniProt Q96EV2) | inactive: 0.017 |

| Target | log2 fold change |
| --- | --- |
| RABIF (UniProt P47224) | inactive: 0.034 |
| RANGAP1 (UniProt P46060) | inactive: 0.002 |
| RAP1GDS1 isoform 5 (UniProt P52306) | inactive: 0.019 |
| RAP2B (UniProt P61225) | inactive: 0.061 |
| RAB3GAP1 (UniProt Q15042) | inactive: 0.099 |
| RAC2 (UniProt P15153) | inactive: 0.009 |
| RAB5C isoform 2 (UniProt P51148) | inactive: 0 |
| RALGAPA1 isoform 6 (UniProt Q6GYQ0) | inactive: -0.014 |
| RABL6 (UniProt Q3YEC7) | inactive: 0.049 |
| RASSF5 (UniProt Q8WWW0) | inactive: -0.08 |
| RAVER1 (UniProt E9PAU2) | inactive: 0.218 |
| RABGGTB (UniProt P53611) | inactive: -0.039 |
| RALA (UniProt P11233) | inactive: 0.087 |
| RAB29 (UniProt O14966) | inactive: -0.019 |
| RB1 (UniProt P06400) | inactive: -0.007 |
| RAB6B (UniProt Q9NRW1) | inactive: 0.007 |

What follows are targets tested with C/C(=N\NC(=O)C1=CC(=CC=C1)S(=O)(=O)N2CCOCC2)/C3=C(C=CC(=C3)Cl)O in the same assay as above.
In short: as §1

| Target | log2 fold change |
| --- | --- |
| RABGEF1 isoform 3 (UniProt Q9UJ41) | inactive: -0.006 |
| RAP2C (UniProt Q9Y3L5) | inactive: 0.119 |
| RBBP7 (UniProt Q16576) | inactive: -0.037 |
| RBM28 (UniProt Q9NW13) | inactive: -0.052 |
| RAB10 (UniProt P61026) | inactive: 0.002 |
| RAB6D (UniProt Q53S08) | inactive: -0.017 |
| RAB3IL1 (UniProt Q8TBN0) | inactive: -0.007 |
| RAB11FIP1 (UniProt Q6WKZ4) | inactive: 0.074 |
| RAB30 (UniProt Q15771) | inactive: 0.165 |
| RAB8B (UniProt Q92930) | inactive: 0.085 |
| RAD1 (UniProt O60671) | inactive: 0.02 |
| RALB isoform 2 (UniProt P11234) | inactive: 0.034 |
| RARS (UniProt P54136) | inactive: 0.011 |
| RAB4A (UniProt P20338) | inactive: 0.047 |
| RBM22 (UniProt Q9NW64) | inactive: -0.037 |
| RBM33 (UniProt Q96EV2) | inactive: 0.04 |

| Target | log2 fold change |
| --- | --- |
| RABIF (UniProt P47224) | inactive: 0.081 |
| RANGAP1 (UniProt P46060) | inactive: 0.044 |
| RAP1GDS1 isoform 5 (UniProt P52306) | inactive: -0.012 |
| RAP2B (UniProt P61225) | inactive: -0.007 |
| RAB3GAP1 (UniProt Q15042) | inactive: 0.073 |
| RAC2 (UniProt P15153) | inactive: -0.014 |
| RAB5C isoform 2 (UniProt P51148) | inactive: 0.042 |
| RALGAPA1 isoform 6 (UniProt Q6GYQ0) | inactive: 0.09 |
| RABL6 (UniProt Q3YEC7) | inactive: -0.021 |
| RASSF5 (UniProt Q8WWW0) | inactive: 0.001 |
| RAVER1 (UniProt E9PAU2) | inactive: 0.403 |
| RABGGTB (UniProt P53611) | inactive: -0.023 |
| RALA (UniProt P11233) | inactive: -0.005 |
| RAB29 (UniProt O14966) | inactive: -0.051 |
| RB1 (UniProt P06400) | inactive: 0.041 |
| RAB6B (UniProt Q9NRW1) | inactive: 0.064 |

What follows are targets tested with C1=CC(=C(C=C1Cl)C2=NC3=NC=CN=C3C(=N2)NC4=CC=NC=C4)F in the same assay as above.
In short: as §1

| Target | log2 fold change |
| --- | --- |
| RABGEF1 isoform 3 (UniProt Q9UJ41) | inactive: -0.009 |
| RAP2C (UniProt Q9Y3L5) | inactive: 0.205 |
| RBBP7 (UniProt Q16576) | inactive: -0.027 |
| RBM28 (UniProt Q9NW13) | inactive: -0.185 |
| RAB10 (UniProt P61026) | inactive: 0.015 |
| RAB6D (UniProt Q53S08) | inactive: 0 |
| RAB3IL1 (UniProt Q8TBN0) | inactive: 0.057 |
| RAB11FIP1 (UniProt Q6WKZ4) | inactive: 0.078 |
| RAB30 (UniProt Q15771) | inactive: -0.029 |
| RAB8B (UniProt Q92930) | active: 0.332 |
| RAD1 (UniProt O60671) | inactive: 0.089 |
| RALB isoform 2 (UniProt P11234) | inactive: 0.015 |
| RARS (UniProt P54136) | inactive: -0.169 |
| RAB4A (UniProt P20338) | inactive: -0.01 |
| RBM22 (UniProt Q9NW64) | inactive: -0.061 |
| RBM33 (UniProt Q96EV2) | inactive: -0.022 |

| Target | log2 fold change |
| --- | --- |
| RABIF (UniProt P47224) | inactive: 0.011 |
| RANGAP1 (UniProt P46060) | inactive: -0.001 |
| RAP1GDS1 isoform 5 (UniProt P52306) | inactive: -0.021 |
| RAP2B (UniProt P61225) | inactive: 0.031 |
| RAB3GAP1 (UniProt Q15042) | inactive: -0.076 |
| RAC2 (UniProt P15153) | inactive: -0.045 |
| RAB5C isoform 2 (UniProt P51148) | inactive: 0.066 |
| RALGAPA1 isoform 6 (UniProt Q6GYQ0) | inactive: 0.042 |
| RABL6 (UniProt Q3YEC7) | inactive: -0.022 |
| RASSF5 (UniProt Q8WWW0) | inactive: -0.101 |
| RAVER1 (UniProt E9PAU2) | inactive: 0.042 |
| RABGGTB (UniProt P53611) | inactive: 0.103 |
| RALA (UniProt P11233) | inactive: 0.033 |
| RAB29 (UniProt O14966) | inactive: 0.043 |
| RB1 (UniProt P06400) | inactive: 0.012 |
| RAB6B (UniProt Q9NRW1) | inactive: 0.046 |
